Test results: the supplement of paper PMC10849652
This is one part of the list.

Protein sequences, listed by entry. Tags and fused reporters are not part of them. Lines headed by an entry give the natural chain unless they say otherwise; changes in a name come on top.
UniProt P35790, whole entry, looked up: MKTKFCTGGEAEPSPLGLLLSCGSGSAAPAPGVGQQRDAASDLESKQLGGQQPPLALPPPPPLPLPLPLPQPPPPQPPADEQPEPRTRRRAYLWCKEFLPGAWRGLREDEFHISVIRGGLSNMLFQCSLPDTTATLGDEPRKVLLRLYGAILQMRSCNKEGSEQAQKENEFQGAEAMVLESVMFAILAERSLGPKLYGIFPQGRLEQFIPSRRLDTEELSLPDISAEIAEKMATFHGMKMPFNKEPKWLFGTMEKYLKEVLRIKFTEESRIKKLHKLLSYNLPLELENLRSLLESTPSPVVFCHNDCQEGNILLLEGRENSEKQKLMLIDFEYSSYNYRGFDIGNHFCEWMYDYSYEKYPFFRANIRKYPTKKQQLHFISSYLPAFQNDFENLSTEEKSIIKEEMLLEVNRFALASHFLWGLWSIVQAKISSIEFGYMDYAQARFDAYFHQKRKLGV
UniProt O75153: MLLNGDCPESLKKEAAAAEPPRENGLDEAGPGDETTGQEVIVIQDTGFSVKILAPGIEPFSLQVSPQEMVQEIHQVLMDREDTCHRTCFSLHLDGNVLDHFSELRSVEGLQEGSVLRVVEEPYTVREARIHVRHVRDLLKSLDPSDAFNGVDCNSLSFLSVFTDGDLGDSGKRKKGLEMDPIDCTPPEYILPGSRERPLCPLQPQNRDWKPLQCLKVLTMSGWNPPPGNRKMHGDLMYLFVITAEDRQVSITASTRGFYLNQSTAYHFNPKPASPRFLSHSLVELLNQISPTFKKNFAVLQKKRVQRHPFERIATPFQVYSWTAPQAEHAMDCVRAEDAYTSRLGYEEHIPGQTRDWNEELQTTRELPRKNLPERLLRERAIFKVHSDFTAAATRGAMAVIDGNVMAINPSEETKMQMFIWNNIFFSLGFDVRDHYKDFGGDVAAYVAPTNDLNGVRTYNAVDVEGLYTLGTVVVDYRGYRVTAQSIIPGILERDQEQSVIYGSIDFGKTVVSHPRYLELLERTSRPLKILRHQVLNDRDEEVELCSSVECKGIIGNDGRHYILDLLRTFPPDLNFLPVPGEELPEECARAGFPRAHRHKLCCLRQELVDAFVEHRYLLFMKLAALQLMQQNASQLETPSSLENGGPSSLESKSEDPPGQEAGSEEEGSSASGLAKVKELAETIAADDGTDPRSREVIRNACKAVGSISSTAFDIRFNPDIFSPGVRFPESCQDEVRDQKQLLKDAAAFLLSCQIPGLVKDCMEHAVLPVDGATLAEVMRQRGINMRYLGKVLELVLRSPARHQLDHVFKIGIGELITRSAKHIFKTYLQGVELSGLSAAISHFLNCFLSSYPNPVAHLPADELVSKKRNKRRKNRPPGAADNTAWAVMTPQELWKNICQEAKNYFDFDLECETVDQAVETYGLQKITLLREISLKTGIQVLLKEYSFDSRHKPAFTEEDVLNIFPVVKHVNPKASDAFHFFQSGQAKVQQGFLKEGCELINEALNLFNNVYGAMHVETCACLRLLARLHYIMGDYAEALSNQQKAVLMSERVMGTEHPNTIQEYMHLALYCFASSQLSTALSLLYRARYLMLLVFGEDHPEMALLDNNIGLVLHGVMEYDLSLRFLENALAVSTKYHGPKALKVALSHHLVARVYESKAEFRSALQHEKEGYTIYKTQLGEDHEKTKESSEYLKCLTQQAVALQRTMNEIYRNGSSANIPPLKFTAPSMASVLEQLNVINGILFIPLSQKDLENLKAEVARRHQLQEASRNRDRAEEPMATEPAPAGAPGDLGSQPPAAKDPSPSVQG
UniProt Q8IWX8: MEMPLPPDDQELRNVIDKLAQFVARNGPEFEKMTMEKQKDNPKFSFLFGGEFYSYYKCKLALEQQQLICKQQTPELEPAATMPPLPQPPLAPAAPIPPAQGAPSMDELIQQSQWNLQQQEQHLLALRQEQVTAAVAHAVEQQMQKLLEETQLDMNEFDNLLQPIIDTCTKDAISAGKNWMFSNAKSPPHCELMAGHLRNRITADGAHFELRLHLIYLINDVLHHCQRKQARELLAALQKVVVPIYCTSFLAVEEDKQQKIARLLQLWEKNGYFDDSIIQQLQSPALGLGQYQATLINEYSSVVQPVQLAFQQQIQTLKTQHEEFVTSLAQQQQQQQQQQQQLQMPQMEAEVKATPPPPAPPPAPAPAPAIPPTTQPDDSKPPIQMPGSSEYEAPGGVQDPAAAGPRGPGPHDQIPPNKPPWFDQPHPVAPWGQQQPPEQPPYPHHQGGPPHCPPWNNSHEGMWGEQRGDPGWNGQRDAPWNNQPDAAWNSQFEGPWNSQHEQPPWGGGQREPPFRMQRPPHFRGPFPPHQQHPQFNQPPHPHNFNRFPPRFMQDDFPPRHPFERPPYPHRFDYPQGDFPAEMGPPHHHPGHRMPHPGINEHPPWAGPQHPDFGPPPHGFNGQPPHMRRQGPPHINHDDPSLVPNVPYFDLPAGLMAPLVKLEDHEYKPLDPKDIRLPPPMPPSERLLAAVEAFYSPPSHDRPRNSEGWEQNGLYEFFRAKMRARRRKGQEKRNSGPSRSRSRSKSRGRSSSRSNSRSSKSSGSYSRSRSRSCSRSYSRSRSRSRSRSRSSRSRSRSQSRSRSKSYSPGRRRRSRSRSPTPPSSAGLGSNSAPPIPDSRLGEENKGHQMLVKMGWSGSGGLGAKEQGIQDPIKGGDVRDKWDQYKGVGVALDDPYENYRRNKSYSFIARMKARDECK
UniProt Q9BWS9: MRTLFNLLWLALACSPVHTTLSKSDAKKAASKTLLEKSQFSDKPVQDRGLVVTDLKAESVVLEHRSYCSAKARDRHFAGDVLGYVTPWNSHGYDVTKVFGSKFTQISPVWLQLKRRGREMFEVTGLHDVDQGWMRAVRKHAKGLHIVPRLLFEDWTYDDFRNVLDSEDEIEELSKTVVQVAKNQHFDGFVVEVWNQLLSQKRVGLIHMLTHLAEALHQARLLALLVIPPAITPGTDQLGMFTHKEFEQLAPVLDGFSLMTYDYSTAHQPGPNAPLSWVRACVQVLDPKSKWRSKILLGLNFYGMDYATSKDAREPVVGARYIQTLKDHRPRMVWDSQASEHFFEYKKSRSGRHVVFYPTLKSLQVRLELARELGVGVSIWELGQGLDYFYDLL
UniProt Q6FI81: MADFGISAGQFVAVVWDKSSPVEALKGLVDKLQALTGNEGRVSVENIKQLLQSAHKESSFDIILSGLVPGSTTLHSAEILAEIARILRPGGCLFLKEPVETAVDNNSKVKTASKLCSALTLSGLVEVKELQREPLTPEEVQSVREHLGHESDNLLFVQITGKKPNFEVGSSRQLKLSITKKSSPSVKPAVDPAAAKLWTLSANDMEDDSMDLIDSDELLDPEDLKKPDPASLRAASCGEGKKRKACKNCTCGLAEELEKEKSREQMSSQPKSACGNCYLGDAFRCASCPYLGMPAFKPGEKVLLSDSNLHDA
UniProt I3L2J0: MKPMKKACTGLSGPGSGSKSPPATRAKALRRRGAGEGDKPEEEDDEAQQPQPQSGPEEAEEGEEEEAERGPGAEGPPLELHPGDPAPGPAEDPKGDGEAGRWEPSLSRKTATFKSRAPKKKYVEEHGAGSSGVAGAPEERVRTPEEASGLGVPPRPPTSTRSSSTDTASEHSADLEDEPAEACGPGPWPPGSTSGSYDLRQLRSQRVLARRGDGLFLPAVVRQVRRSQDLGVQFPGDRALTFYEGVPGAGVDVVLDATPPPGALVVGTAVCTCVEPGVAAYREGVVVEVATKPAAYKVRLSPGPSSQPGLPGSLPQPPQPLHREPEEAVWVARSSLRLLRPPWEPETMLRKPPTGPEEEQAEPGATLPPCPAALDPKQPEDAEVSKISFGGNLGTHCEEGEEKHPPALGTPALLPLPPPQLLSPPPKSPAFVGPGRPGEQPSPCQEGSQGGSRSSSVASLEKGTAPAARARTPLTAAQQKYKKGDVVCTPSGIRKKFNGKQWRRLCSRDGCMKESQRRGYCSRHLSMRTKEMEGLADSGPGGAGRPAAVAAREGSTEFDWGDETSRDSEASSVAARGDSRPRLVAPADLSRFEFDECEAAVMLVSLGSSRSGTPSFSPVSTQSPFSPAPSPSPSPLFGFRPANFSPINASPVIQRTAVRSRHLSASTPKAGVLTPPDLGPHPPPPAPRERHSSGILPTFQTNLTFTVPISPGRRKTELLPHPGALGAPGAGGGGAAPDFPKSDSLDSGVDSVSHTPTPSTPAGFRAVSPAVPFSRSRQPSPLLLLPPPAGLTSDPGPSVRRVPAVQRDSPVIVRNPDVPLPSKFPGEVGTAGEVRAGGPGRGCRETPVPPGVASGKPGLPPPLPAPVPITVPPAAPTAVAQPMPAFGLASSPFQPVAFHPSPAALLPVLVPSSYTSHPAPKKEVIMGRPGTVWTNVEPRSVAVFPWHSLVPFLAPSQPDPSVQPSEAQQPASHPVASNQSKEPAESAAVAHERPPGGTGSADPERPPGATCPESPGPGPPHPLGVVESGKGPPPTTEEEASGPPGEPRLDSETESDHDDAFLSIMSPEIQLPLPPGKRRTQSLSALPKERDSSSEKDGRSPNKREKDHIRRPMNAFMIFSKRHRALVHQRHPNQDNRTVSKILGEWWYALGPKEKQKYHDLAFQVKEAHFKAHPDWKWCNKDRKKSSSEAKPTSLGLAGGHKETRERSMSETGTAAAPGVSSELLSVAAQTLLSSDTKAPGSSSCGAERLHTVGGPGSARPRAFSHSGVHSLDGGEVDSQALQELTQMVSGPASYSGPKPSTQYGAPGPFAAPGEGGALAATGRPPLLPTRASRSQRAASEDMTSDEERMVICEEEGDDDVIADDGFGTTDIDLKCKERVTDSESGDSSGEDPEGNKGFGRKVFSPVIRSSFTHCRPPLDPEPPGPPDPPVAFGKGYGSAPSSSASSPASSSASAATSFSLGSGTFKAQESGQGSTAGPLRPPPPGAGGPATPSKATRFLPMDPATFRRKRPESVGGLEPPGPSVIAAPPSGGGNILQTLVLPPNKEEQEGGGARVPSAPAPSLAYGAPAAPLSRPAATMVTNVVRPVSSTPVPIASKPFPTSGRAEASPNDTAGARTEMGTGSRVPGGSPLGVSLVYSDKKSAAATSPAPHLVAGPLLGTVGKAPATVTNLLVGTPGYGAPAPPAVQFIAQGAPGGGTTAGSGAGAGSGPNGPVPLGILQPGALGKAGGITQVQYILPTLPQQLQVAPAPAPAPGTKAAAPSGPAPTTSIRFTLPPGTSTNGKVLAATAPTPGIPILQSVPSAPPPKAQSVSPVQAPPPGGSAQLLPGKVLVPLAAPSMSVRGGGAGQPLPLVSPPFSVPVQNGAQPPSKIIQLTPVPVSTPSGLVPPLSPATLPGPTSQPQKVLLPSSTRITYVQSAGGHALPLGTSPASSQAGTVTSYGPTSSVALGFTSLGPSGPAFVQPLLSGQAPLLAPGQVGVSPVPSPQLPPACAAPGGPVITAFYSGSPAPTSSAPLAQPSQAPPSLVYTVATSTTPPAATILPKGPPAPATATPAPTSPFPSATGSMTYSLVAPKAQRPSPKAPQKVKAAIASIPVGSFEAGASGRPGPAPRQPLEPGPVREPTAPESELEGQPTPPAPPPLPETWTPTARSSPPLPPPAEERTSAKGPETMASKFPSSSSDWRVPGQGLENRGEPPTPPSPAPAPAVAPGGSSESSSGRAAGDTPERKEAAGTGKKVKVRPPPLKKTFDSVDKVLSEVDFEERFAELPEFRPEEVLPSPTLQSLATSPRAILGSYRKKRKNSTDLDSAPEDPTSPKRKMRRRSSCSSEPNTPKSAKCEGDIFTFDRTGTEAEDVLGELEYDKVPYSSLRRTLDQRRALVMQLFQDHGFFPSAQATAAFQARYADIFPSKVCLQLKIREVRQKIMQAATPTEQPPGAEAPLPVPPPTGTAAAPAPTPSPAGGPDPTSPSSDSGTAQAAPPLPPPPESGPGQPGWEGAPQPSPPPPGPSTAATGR
UniProt Q8NFW8: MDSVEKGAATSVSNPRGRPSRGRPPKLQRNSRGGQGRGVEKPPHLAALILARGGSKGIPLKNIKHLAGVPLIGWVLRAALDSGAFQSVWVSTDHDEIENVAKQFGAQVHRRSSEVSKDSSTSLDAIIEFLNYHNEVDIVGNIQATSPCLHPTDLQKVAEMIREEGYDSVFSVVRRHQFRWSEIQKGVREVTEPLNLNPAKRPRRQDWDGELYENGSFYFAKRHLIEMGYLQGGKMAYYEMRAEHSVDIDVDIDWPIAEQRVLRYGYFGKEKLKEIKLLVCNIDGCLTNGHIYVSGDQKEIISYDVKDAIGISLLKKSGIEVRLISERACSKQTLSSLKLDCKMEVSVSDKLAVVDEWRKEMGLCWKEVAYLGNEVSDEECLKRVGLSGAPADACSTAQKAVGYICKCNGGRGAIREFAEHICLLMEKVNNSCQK
UniProt Q9NZZ3: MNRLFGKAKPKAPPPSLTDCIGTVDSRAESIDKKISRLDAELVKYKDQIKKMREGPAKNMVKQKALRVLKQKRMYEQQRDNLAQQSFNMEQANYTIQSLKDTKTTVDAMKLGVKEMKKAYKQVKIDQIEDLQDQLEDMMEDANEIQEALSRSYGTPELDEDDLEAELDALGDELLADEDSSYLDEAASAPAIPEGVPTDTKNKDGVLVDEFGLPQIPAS

Experiments:
Test in all cases: log2 fold change, soluble protein after heating vs DMSO (PISA); higher = thermal stabilisation; K562 lysate, 10 uM; active = over 0.2 and 3.5 SD of the protein, either way, in both replicates (recomputed)
alvocidib = compound: CN1CC[C@H](c2c(O)cc(O)c3c(=O)cc(-c4ccccc4Cl)oc23)[C@H](O)C1 [alvocidib]
In short: (§1)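 K562 pellets were dounce-homogenised in PBS pH 7.4 containing 1 mM MgCl2, and the crude extract, at 1 mg/mL protein, was exposed to 10 μM compound for 30 min. Aliquots were heated for 3 min across 48°C-58°C, pooled, brought to 0.5% NP-40 at 4°C and spun at 21,000xg for 90 min, with the supernatant taken as soluble protein. TMTpro 16plex LC-MS/MS with equalised channel sums quantified that protein. Values are log-two fold changes in thermal stability relative to solvent controls, taken from duplicates.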

Tubastatin A = compound: CN1CCc2c(c3ccccc3n2Cc2ccc(C(=O)NO)cc2)C1 [Tubastatin A]
In short: as §1

[1] = compound: CNC(=O)C1=CC=CC=C1NC2=NC(=NC=C2Cl)NC3=C(C=C(C=C3)N4CCOCC4)OC
In short: as §1

defactinib = compound: CNC(=O)c1ccc(Nc2ncc(C(F)(F)F)c(NCc3nccnc3N(C)S(C)(=O)=O)n2)cc1 [defactinib]
In short: as §1

[2] = compound: CNc1nc(-c2ccc3c(N)n[nH]c3c2)cc(N2C[C@@H](C(=O)NC3CCCCC3)CC[C@H]2C)n1
In short: as §1

encorafenib = compound: COC(=O)N[C@@H](C)CNc1nccc(-c2cn(C(C)C)nc2-c2cc(Cl)cc(NS(C)(=O)=O)c2F)n1 [encorafenib]
In short: as §1

[3] = compound: COC(=O)[C@H](CCSC)NC(=O)C1=C(C=C(C=C1)NC[C@H](CS)N)C2=CC=CC=C2
In short: as §1

alisertib = compound: COc1cc(Nc2ncc3c(n2)-c2ccc(Cl)cc2C(c2c(F)cccc2OC)=NC3)ccc1C(=O)O [alisertib]
In short: as §1

[4] = compound: COc1cc2nc(-c3cc(F)ccc3O)nc(N[C@@H]3CNC[C@H]3C(C)(C)O)c2cc1OC
In short: as §1

gefitinib = compound: COc1cc2ncnc(Nc3ccc(F)c(Cl)c3)c2cc1OCCCN1CCOCC1 [gefitinib]
In short: as §1

Measured: log2 fold change

CHD8 (UniProt Q9HCK8)
inactive: alvocidib -0.009 | Tubastatin A -0.049 | [1] 0.019 | defactinib -0.043 | [2] 0.041 | encorafenib 0.064 | [3] 0.087 | alisertib -0.034 | [4] 0.09 | gefitinib 0.1

CHKA (UniProt P35790)
inactive: alvocidib -0.025 | Tubastatin A 0.12 | [1] 0.027 | defactinib 0.066 | [2] 0.132 | encorafenib 0.013 | [3] -0.009 | alisertib -0.02 | [4] -0.011 | gefitinib -0.053

CLUH (UniProt O75153)
inactive: alvocidib -0.022 | Tubastatin A -0.076 | [1] -0.076 | defactinib 0.002 | [2] -0.029 | encorafenib 0.007 | [3] 0.058 | alisertib -0.014 | [4] -0.014 | gefitinib 0.017

CLIC1 (UniProt O00299)
inactive: alvocidib 0.004 | Tubastatin A 0.008 | [1] 0.018 | defactinib -0.003 | [2] 0.011 | encorafenib -0.026 | [3] 0.036 | alisertib -0.002 | [4] -0.005 | gefitinib -0.006

CKB (UniProt P12277)
inactive: alvocidib 0.012 | Tubastatin A -0.04 | [1] -0.008 | defactinib 0.039 | [2] -0.011 | encorafenib -0.055 | [3] 0.076 | alisertib 0.026 | [4] -0.018 | gefitinib -0.013

CHORDC1 (UniProt Q9UHD1)
inactive: alvocidib 0.033 | Tubastatin A 0.004 | [1] 0.007 | defactinib 0 | [2] -0.002 | encorafenib -0.029 | [3] -0.018 | alisertib -0.012 | [4] -0.008 | gefitinib -0.026

CLTB isoform 2 (UniProt P09497)
inactive: alvocidib -0.002 | Tubastatin A 0.05 | [1] -0.001 | defactinib 0.008 | [2] 0.028 | encorafenib -0.021 | [3] -0.011 | alisertib -0.023 | [4] 0.017 | gefitinib -0.008

CHCHD10 (UniProt Q8WYQ3)
inactive: alvocidib -0.001 | Tubastatin A 0.026 | [1] 0.009 | defactinib -0.044 | [2] -0.066 | encorafenib -0.056 | [3] -0.084 | alisertib -0.105 | [4] -0.009 | gefitinib -0.119

CHAMP1 (UniProt Q96JM3)
inactive: alvocidib -0.002 | Tubastatin A -0.012 | [1] 0.037 | defactinib 0.049 | [2] -0.009 | encorafenib 0.006 | [3] 0.013 | alisertib -0.035 | [4] -0.047 | gefitinib -0.04

CHERP (UniProt Q8IWX8)
inactive: alvocidib 0.025 | Tubastatin A -0.055 | [1] -0.051 | defactinib 0.001 | [2] -0.003 | encorafenib 0.021 | [3] 0.031 | alisertib 0.031 | [4] -0.015 | gefitinib -0.003

CHP1 (UniProt Q99653)
inactive: alvocidib -0.106 | Tubastatin A 0.047 | [1] 0.036 | defactinib 0.02 | [2] 0.031 | encorafenib 0.016 | [3] -0.075 | alisertib -0.014 | [4] -0.012 | gefitinib 0.061

CLPTM1L (UniProt Q96KA5)
inactive: alvocidib 0.001 | Tubastatin A -0.064 | [1] -0.131 | defactinib 0.015 | [2] -0.204 | encorafenib 0.021 | [3] -0.029 | alisertib 0.054 | [4] -0.097 | gefitinib 0.011

CMPK1 (UniProt P30085)
inactive: alvocidib 0.003 | Tubastatin A -0.001 | [1] -0.017 | defactinib 0.038 | [2] -0.07 | encorafenib 0 | [3] -0.03 | alisertib 0.033 | [4] -0.019 | gefitinib 0.008

CHID1 (UniProt Q9BWS9)
inactive: alvocidib 0.038 | Tubastatin A 0.029 | [1] -0.046 | defactinib -0.003 | [2] 0.036 | encorafenib 0.006 | [3] -0.036 | alisertib 0.001 | [4] 0.024 | gefitinib 0.024

CKMT2 (UniProt P17540)
inactive: alvocidib -0.115 | Tubastatin A 0.053 | [1] 0.018 | defactinib -0.034 | [2] 0.116 | encorafenib 0.007 | [3] 0.013 | alisertib 0.056 | [4] 0.002 | gefitinib -0.019

CIAPIN1 (UniProt Q6FI81)
inactive: alvocidib 0.012 | Tubastatin A 0.038 | [1] 0.007 | defactinib -0.022 | [2] 0.019 | encorafenib 0 | [3] -0.022 | alisertib -0.009 | [4] 0.009 | gefitinib -0.026

CMPK2 (UniProt Q5EBM0)
inactive: alvocidib -0.046 | Tubastatin A 0.005 | [1] 0.018 | defactinib 0.027 | [2] -0.006 | encorafenib 0.01 | [3] 0.028 | alisertib -0.026 | [4] 0.018 | gefitinib -0.022

CLASP2 isoform 3 (UniProt O75122)
inactive: alvocidib -0.151 | Tubastatin A -0.103 | [1] 0.007 | defactinib -0.051 | [2] -0.003 | encorafenib 0.035 | [3] -0.008 | alisertib 0.032 | [4] 0 | gefitinib -0.007

CLPX (UniProt O76031)
inactive: alvocidib 0.018 | Tubastatin A -0.048 | [1] -0.017 | defactinib 0.022 | [2] 0.024 | encorafenib -0.006 | [3] 0.086 | alisertib -0.04 | [4] 0.035 | gefitinib -0.008

CKMT1A (UniProt P12532)
inactive: alvocidib -0.005 | Tubastatin A 0.044 | [1] 0.011 | defactinib 0.053 | [2] 0.043 | encorafenib 0.001 | [3] -0.071 | alisertib -0.018 | [4] -0.034 | gefitinib -0.031

Two consecutive records from above, quoted:
CIAPIN1 (UniProt Q6FI81)
inactive: alvocidib 0.012 | Tubastatin A 0.038 | [1] 0.007 | defactinib -0.022 | [2] 0.019 | encorafenib 0 | [3] -0.022 | alisertib -0.009 | [4] 0.009 | gefitinib -0.026

CMPK2 (UniProt Q5EBM0)
inactive: alvocidib -0.046 | Tubastatin A 0.005 | [1] 0.018 | defactinib 0.027 | [2] -0.006 | encorafenib 0.01 | [3] 0.028 | alisertib -0.026 | [4] 0.018 | gefitinib -0.022

Later entries:

CLEC16A (UniProt Q2KHT3)
inactive: alvocidib 0.086 | Tubastatin A 0.027 | [1] 0.026 | defactinib -0.004 | [2] 0.034 | encorafenib 0.038 | [3] -0.03 | alisertib -0.023 | [4] 0.028 | gefitinib 0.043

CLCN3 isoform 2 (UniProt P51790)
inactive: alvocidib -0.02 | Tubastatin A 0.02 | [1] 0.024 | defactinib -0.015 | [2] 0.033 | encorafenib 0.041 | [3] 0.022 | alisertib -0.007 | [4] -0.002 | gefitinib 0.005

CHML (UniProt P26374)
inactive: alvocidib -0.019 | Tubastatin A 0.008 | [1] -0.004 | defactinib -0.025 | [2] 0.002 | encorafenib 0.003 | [3] 0.005 | alisertib 0.014 | [4] 0.011 | gefitinib 0.012

CHURC1 isoform 2 (UniProt Q8WUH1)
inactive: alvocidib 0.002 | Tubastatin A 0.002 | [1] 0 | defactinib 0.051 | [2] 0.024 | encorafenib -0.068 | [3] -0.005 | alisertib 0.013 | [4] -0.145 | gefitinib -0.025

CIC (UniProt I3L2J0)
inactive: alvocidib 0.005 | Tubastatin A -0.03 | [1] 0.072 | defactinib 0.041 | [2] 0.035 | encorafenib -0.002 | [3] 0.052 | alisertib -0.027 | [4] 0.158 | gefitinib -0.098

CIZ1 (UniProt Q9ULV3)
inactive: alvocidib -0.032 | Tubastatin A 0.017 | [1] 0.002 | defactinib -0.005 | [2] 0.025 | encorafenib 0.036 | [3] 0.002 | alisertib 0.023 | [4] 0.072 | gefitinib 0.014

CMAS (UniProt Q8NFW8)
inactive: alvocidib 0.043 | Tubastatin A 0.012 | [1] 0.018 | defactinib 0 | [2] 0.013 | encorafenib -0.015 | [3] -0.018 | alisertib 0.009 | [4] 0.007 | gefitinib -0.018

CKAP5 (UniProt Q14008)
inactive: alvocidib 0.008 | Tubastatin A -0.076 | [1] 0.019 | defactinib 0.008 | [2] 0.003 | encorafenib 0.013 | [3] 0.074 | alisertib 0.012 | [4] 0.007 | gefitinib -0.005

CIRBP (UniProt Q14011)
inactive: alvocidib 0.003 | Tubastatin A 0.023 | [1] -0.02 | defactinib 0.014 | [2] 0.03 | encorafenib 0.019 | [3] -0.068 | alisertib -0.008 | [4] 0 | gefitinib -0.019

CHMP5 (UniProt Q9NZZ3)
inactive: alvocidib -0.027 | Tubastatin A 0.052 | [1] 0.002 | defactinib 0.066 | [2] -0.017 | encorafenib 0.006 | [3] -0.013 | alisertib 0.007 | [4] 0.017 | gefitinib 0.041
